Among the data in PubChem BioAssay AID1487 (National Center for Advancing Translational Sciences (NCATS), 2009) are AC50 values, retold here.

Some of the results follow. Shown are side measurements of this screen, not its main read-out; they come without a call. The list favours compounds with an active or inconclusive main result. The note in brackets gives the kind of curve behind each potency; many fits are weak.

The experiment is described as follows: qHTS Assay for Modulators of Lamin A Splicing. The settings on record: HeLa LMNA splicing GFP/RFP minigene ratio, 48 h. The method, boiled down: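 S3 HeLa cells stably expressing lamin A-EGFP splicing minigene plus DsRed2, 600 cells/well, 48 h compound exposure at 37C. Laser-scanning cytometry; analysed as GFP (500-530 nm)/RFP (575-640 nm) total intensity ratio; 0.5% DMSO vehicle.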
On the technique in general: In qHTS, concentration-response curves come from the screen itself.

Where [1] appears, read: measured here: GFP splicing reporter channel.
[2] abbreviates: measured here: RFP viability control channel.

As usually defined, the AC50 is the midpoint of the concentration-response curve, whichever way the signal moves.

On to `COC(=O)C1=C(Nc2ccc(OC)cc2)C=C(C)C(C(=O)OC)C1c1ccc(C)cc1` (centres undefined), for which the AC50 under setting [1] was 8.91 µM [rising, partial curve] and the AC50 under setting [2] was 8.91 µM [rising, partial curve].

Take `COc1ccccc1NC(=O)CN1C(=O)NC2(CCCCCCC2)C1=O`: the AC50 under setting [1] is 0.0316 µM [falling, full curve, poor fit].

Take `Clc1ccccc1CNc1ncnc2c1nc1n2CCCC1`: the AC50 is 12.6 µM [falling, single point] under setting [1] and 35.5 µM [rising, single point] under setting [2].

In the case of `CCc1ccc(OCCCC(=O)Nc2ccc(S(N)(=O)=O)cc2)cc1`, the AC50 was 7.08 µM [falling, partial curve, poor fit] under setting [1] and 0.631 µM [falling, full curve, poor fit] under setting [2].

In the case of `O=C(N/N=C/C=C/c1ccccc1)c1n[nH]c2c1CCC2`, under setting [2], the AC50 was 7.94 µM [rising, partial curve, poor fit].

`NC1=NC(=O)/C(=C\c2cccnc2)S1`: the AC50 under setting [2] was 7.08 µM [falling, partial curve].

Turning to `CCn1c2ccccc2c2cc(NC(=O)c3cc(OC)cc(OC)c3)ccc21`, the AC50 is, setting by setting: under setting [1], 3.16 µM [rising, single point]; under setting [2], 1.58 µM [rising, partial curve].

Consider `O=C1NC2(C=Cc3c(ccc4ccccc34)O2)Oc2ccccc21` (centres undefined), for which the AC50 under setting [1] was 20 µM [falling, single point] and the AC50 under setting [2] was 35.5 µM [falling, single point].

`Cc1[nH]c2c(C)cccc2c1CCNC(=O)c1ccc2c(c1[N+](=O)[O-])C(=O)c1ccccc1C2=O`: the AC50 is, setting by setting: under setting [1], 35.5 µM [falling, single point]; under setting [2], 35.5 µM [falling, single point].

Turning to `Cc1ccc(N(CC(=O)NN=C2CCN(C)CC2)S(=O)(=O)c2ccc(C)cc2)cc1`, under setting [2], the AC50 was 5.62 µM [falling, single point].

Take `COc1ccc2[nH]cc(CCNc3ncnc4ccc(-c5ccc6c(c5)OCO6)cc34)c2c1`: the AC50 reads like this: under setting [1], 12.6 µM [falling, partial curve]; under setting [2], 17.8 µM [falling, single point].

Consider `CCN(CC)S(=O)(=O)c1ccc(C(=O)NCCN2C(=O)S/C(=C\c3cccnc3)C2=O)cc1`, for which the AC50 under setting [2] was 6.31 µM [rising, partial curve, poor fit].

Consider `COc1ccc(CCNC(=O)CSc2nnnn2C)cc1OC`, for which, under setting [1], the AC50 was 0.0708 µM [falling, full curve, poor fit].

As for `Cc1cc(C(=O)N/N=C/c2cc([N+](=O)[O-])cc(C)c2O)n[nH]1`, the concentration at half-maximal activity (AC50) by setting is: under setting [1], 0.178 µM [falling, full curve, poor fit]; under setting [2], 5.01 µM [rising, full curve, poor fit].

In the case of `CCOC(=O)c1c(-c2ccccc2)csc1NC(=O)CSc1nnc(C)s1`, the AC50 reads like this: under setting [1], 5.62 µM [rising, partial curve]; under setting [2], 10 µM [rising, partial curve].

For the compound `Cc1ccc(S(=O)(=O)Nc2cc(=O)[nH]c(SCC(=O)Nc3ccccc3Cl)n2)cc1`, under setting [1], the AC50 was 0.00316 µM [rising, full curve, poor fit].

Regarding `COc1ccc(NC(=O)CN2C(=O)C(C)(C)c3ccccc32)cc1Cl`, the AC50 under setting [1] was 8.91 µM [falling, partial curve].

For the compound `Cc1ccc(-n2c(Cn3c(C)nc4ccccc43)n[nH]c2=S)cc1`, under setting [2], the AC50 was 11.2 µM [falling, partial curve].

Consider `CC(Sc1nc2ccccc2s1)C(=O)NC1CCCc2ccccc21` (centres undefined), for which the AC50 was 12.6 µM [rising, single point] under setting [1] and 20 µM [rising, single point] under setting [2].

For `Cc1cc(C(=O)CSc2nnc(N)s2)c(C)n1CCc1ccc(Cl)cc1`, the AC50 under setting [2] is 35.5 µM [rising, single point].

For `O=c1oc2ccccc2c(Nc2ccccc2)c1[N+](=O)[O-]`, the AC50 by setting is: under setting [1], 35.5 µM [rising, single point]; under setting [2], 17.8 µM [rising, single point].

Consider `CCc1cc(-c2n[nH]c(C)c2-c2nc3ccccc3n2C)c(O)cc1O`, for which the AC50 was 0.02 µM [falling, full curve, poor fit] under setting [1] and 28.2 µM [falling, partial curve, poor fit] under setting [2].

On to `CCCS(=O)(=O)N1CCN(Cc2ccc3c(c2)c2ccccc2n3CC)CC1`, for which the AC50 was 17.8 µM [rising, single point] under setting [1] and 35.5 µM [rising, single point] under setting [2].

Consider `COC(=O)Nc1nc(-c2ccccc2)c(C(=O)c2ccccc2)s1`, for which, under setting [2], the AC50 is 0.251 µM [rising, full curve].

`COC(=O)c1ccc(OCC2c3cc(OC)c(OC)cc3CCN2C(=O)c2ccccc2C)cc1` (centres undefined): the AC50 runs as follows: under setting [1], 11.2 µM [falling, partial curve]; under setting [2], 0.0501 µM [falling, full curve, poor fit].

For `COc1ccccc1N1CCN(CCCCNC(=O)c2ccc3ccccc3c2)CC1`, the AC50 under setting [1] is 11.2 µM [falling, partial curve, poor fit] and the AC50 under setting [2] was 8.91 µM [falling, partial curve, poor fit].

In the case of `Cc1oc(-c2ccc(F)cc2)nc1CN(Cc1ccccn1)CC1CCCO1` (centres undefined), the AC50 under setting [1] was 0.398 µM [falling, full curve].

For `COc1cc(/C=C2\SC(c3ccc(C)cc3)=NC2=O)cc(OC)c1O`, under setting [2], the AC50 was 6.31 µM [rising, partial curve, poor fit].

With `CCOc1ccc(C(=O)NCc2nnnn2-c2ccc(C)c(C)c2)cc1OCC`, under setting [2], the AC50 was 6.31 µM [falling, single point].

For the compound `Fc1cccc(-c2cc3nc4c(c(N5CCC6(CC5)OCCO6)n3n2)CCCC4)c1`, the AC50 under setting [1] is 31.6 µM [rising, single point].

Take `Cc1cc2nc(/C(C#N)=C/c3ccncc3)[nH]c2cc1C`: the AC50 under setting [2] was 17.8 µM [rising, partial curve].

In the case of `O=C(CN(c1ccc(Cl)cc1)S(=O)(=O)c1ccc(Cl)c([N+](=O)[O-])c1)NCCc1ccc(F)cc1`, under setting [1], the AC50 was 3.98 µM [rising, full curve, poor fit].

In the case of `Cc1ncc(COP(=O)(O)O)c(C=O)c1O`, under setting [1], the AC50 is 0.0355 µM [falling, full curve, poor fit].

With `Cc1nc2cc(C(=O)NCCC3=CCCCC3)ccc2n1-c1ccc(Br)cc1`, under setting [1], the AC50 is 35.5 µM [falling, single point].
